The exact form of at least one protein or probe is not confirmed. Weaker means in comparison with the reference protein, sequence or condition of that experiment. At least one verdict was read from the data and is not stated in words by the source.
Target: T1, HU alpha (Escherichia coli) (UniProt P0ACF0)
T1 sequence: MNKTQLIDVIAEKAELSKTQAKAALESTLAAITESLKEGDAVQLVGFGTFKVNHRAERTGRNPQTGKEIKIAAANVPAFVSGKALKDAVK
Test: EMSA
Settings: 20 mM Tris-HCl pH 8.0, 7% glycerol, 40 mM NaCl (dsDNA length series, 200 nM DNA, gel 50 mM Tris-borate) or 150 mM NaCl, recombinant protein, protein details: N-terminal 6xHisTEV removed by TEV protease

Sequence: AGTCTAGAGTGCAGTTGAGTCCT (double strand) [D23 dsDNA]
- binding result (40 mM NaCl, label: 5'-HEX): binds

Sequence: AGTCTAGAGTGCAGTTGAGTCCTTG (double strand) [D25 dsDNA]
- binding result (40 mM NaCl, label: 5'-HEX): binds

Sequence: AGTCTAGAGTGCAGTTGAGTCCTTGCT (double strand) [D27 dsDNA]
- binding result (40 mM NaCl, label: 5'-HEX): binds

Sequence: AGTCTAGAGTGCAGTTGAGTCCTTGCTACGACG (double strand) [D33 dsDNA]
- binding result (40 mM NaCl, label: 5'-HEX): binds

Sequence: AGTCTAGAGTGCAGTTGAGTCCTTGCTACGACGGATCCCTTAGGTCAG (double strand) [D48 dsDNA (ds)]
- binding result (150 mM NaCl, smear, label: 5'-HEX on strand 1): binds more weakly

Sequence: AGTCTAGAGTGCAGTTGAGTCCTTGCTACGACGGATCCCTTAGGTCAG / CTGACCTAAGGGATCCGTCGTAGCAAGG / ACTCAACTGCACTCTAGACT [nicked DNA (n)]
- binding result (150 mM NaCl, label: 5'-HEX on strand 1, folded or branched DNA): binds

Sequence: GTCTAGAGTGCAGTTGAGTCCTTGCTACGA (double strand) [D31 dsDNA]
- binding result (40 mM NaCl, label: 5'-HEX): binds
